According to US20150004137A1, “NOVEL FORMS OF PLANT DEFENSINS” (Balmoral Australia Pty Ltd, priority 2011, published 2015):
Entries after “also recorded” stand apart in the source; their conditions may differ. At least one peptide structure holds a part that was inferred or is arguable (an end, a ring closure or a residue). Bridges are numbered along the chain shown (N, C = ends). Where no end group is shown, it is not given here.

What was measured:
[1] = Lipid binding assay on Echelon membrane lipid strips
Text: FIG. 5C is an immunoblot depicting the lipid binding profile of rNaD1, rNaD1(D2L4A), or rNaD1(D2L5). Echelon™ membrane lipid strips were probed with the defensins and binding detected with a rabbit anti-NaD1 antibody followed by a horseradish peroxidase (HRP) conjugated donkey anti-rabbit IgG antibody.
Data is the mean of three replicate experiments±SEM.
Echelon™ membrane lipid strips were probed with the defensins and binding was detected with a rabbit anti-NaD1 antibody followed by a horseradish peroxidase (HRP) conjugated donkey anti-rabbit IgG antibody.
Membrane Lipid Strips™, PIP Strips™ and Sphingo Strips™ (Echelon Biosciences, Salt Lake City, Utah) were incubated with PBS/3% BSA for 1-2 h at RT to block non-specific binding. […] Membrane-bound protein was detected by probing the membrane strips with a rabbit anti-NaD1 polyclonal antibody (diluted 1:2000 with PBS/1% BSA) for 1 h at 4° C., followed by a HRP-conjugated donkey anti-rabbit IgG antibody (diluted 1:2000 with PBS/1% BSA) for 1 h at 4° C. After each antibody incubation, the membrane strips were washed extensively for 60 min at RT with PBS/0.1% Tween-20. Chemiluminescence was detected using the enhanced chemiluminescence (ECL) western blotting reagent (GE Healthcare BioSciences, NSW Australia) and exposed to Hyperfilm (GE Healthcare BioSciences, NSW, Australia) and developed using an Xomat (All-Pro-Imaging).
Densitometry analysis was performed on images obtained from lipid strips using ImageJ (National Institute of Health, Bethesda, Md.). Briefly, circles of equivalent size were traced around areas of interest. A background circle of equal size was also placed in the area on the membrane where there is no lipid and set as the background. The areas of interest were quantified as the average pixel intensity subtracted from the background. Generation of liposomes and liposome pull-down experiments were conducted using a method as described previously (Zhang et al. 2001; Patki et al. 1997).

[2] = Cross-linking (BS3) study of lipid-mediated oligomerisation with PIP2; settings: 0.5 mM PIP2, 30 min room temperature, SDS-PAGE, immunoblot
Method: (§1) Molecular weight markers are indicated.
(§2) Protein samples at 1 mg ml^−1 (2.5 μl) were incubated with 0.5 mM PIP2 or PA (2.5 μl) at room temperature for 30 min. […] Samples were reduced and denatured, and subjected to SDS-PAGE.

[3] = Cross-linking (BS3) study of lipid-mediated oligomerisation with PA; settings: 0.5 mM PA, 30 min room temperature, SDS-PAGE, immunoblot
Method: as §1, §2

[4] = tested on: HeLa cells; assay: Live confocal laser scanning microscopy of NaD1-treated HeLa cells (membrane blebbing); type: cell-based, human; settings: 10 μM NaD1, PI present, adherent cells, CLSM
[5] = tested on: U937 cells; assay: Live confocal laser scanning microscopy of NaD1-treated U937 cells (bleb formation and permeabilisation kinetics); type: cell-based, human; settings: CLSM
[6] = tested on: HeLa cells overexpressing GFP-PH(PLCδ); assay: NaD1 on GFP-PH(PLCδ) versus free GFP transfected HeLa cells (CLSM); type: cell-based, human; settings: 10 μM NaD1, 1 μg/ml PI, imaged over 6 minutes
[7] = as described in PCT/AU2011/000760 and U.S. Ser. No. 13/166,960; cited from earlier work
[8] = NaD1 permeabilised cells (HeLa, U937)

## RECKTESNTFPGICITKPPCRKACISEKFTDGHCSKILRRCLCTKPC (disulfide 3-47, 14-34, 20-41, 24-43) [NaD1]
[1]; Echelon membrane lipid strips, anti-NaD1 antibody detection, densitometry
  lipid binding profile (lipid bound most strongly / preferred): bound most strongly to PIP2
[1]; PA
  binding to phosphatidic acid (PA): binds weakly to NaD1
[1]; PIP2
  binding to PIP2: binds strongly to NaD1
[2]
  multimerisation (oligomer formation) mediated by PIP2: binding of only PIP2 but not PA mediating the efficient formation of oligomers; also recorded: mediating efficient multimer formation
[3]
  multimerisation (oligomer formation) mediated by PA: not PA; also recorded: mediated very low levels of multimerisation
[4]
  membrane blebbing of HeLa cells: profound plasma membrane blebbing and cell permeabilsation; also recorded: forming multiple blebs of different sizes
[5]; NaD1, PI present, non-adherent cells
  membrane blebbing of U937 cells: forming typically 1 to 2 large blebs
[5]; [8]
  bleb retraction: did not retract over a period of 20 minutes
  bleb size (diameter): > 20 μm
[6]
  blebbing and membrane permeabilisation of GFP-PH(PLCδ) expressing cells compared to cells expressing free GFP: protected from permeabilisation by NaD1; also recorded: marked delay from the initiation of blebbing (rapid small membrane blebbing) to membrane permeabilisation
[7]
  lipid binding preference / ligand: phosphoinositides, particularly Ptdlns(4,5)P2
